Data as given in PubChem BioAssay AID504786 (Drosophila RNAi Screening Center, 2011).
The deposit covers about 21,000 reagents; below is an unselected part of those with a known target gene and a result. 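Primary screen; positive scores mean lost reporter signal, so the sign may be inverted from the usual convention.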 The numbers tell different reagents against one gene apart. Names joined by + are all predicted targets of the reagent. Not all columns of the deposit are shown.

Assay: 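Positive regulators of HIF-driven reporter output in Drosophila cells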 (primary screen)
System: Drosophila S2 cells with a stable HIF luciferase reporter
Knock-down reagent: long dsRNA against Drosophila genes, about 0.2 µg dsRNA per well of a 384-well plate
Timing: three days of knock-down, then 20 h of DFO before reading
Challenge: desferrioxamine (DFO) at 100 µM, an iron chelator that mimics hypoxia, for 20 h
Measured: 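HIF reporter luminescence in cells given 100 µM DFO for 20 h, using the mouse ldh-a hypoxia-response element, scored as per-plate z-scores; higher means greater loss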
Direction: z-score: higher = stronger loss of HIF reporter signal

no.	gene knocked down	reagent	z-score, replicate 1	z-score, replicate 2	z-score, replicate 3
1	CG10979 (GeneID 40720)	1	-0.2	-0.8	
2	XNP (GeneID 43080)	1	-0.1	0.6	
3	CG1265 (GeneID 38517)	1	-0.3	-0.6	
4	glec (GeneID 42571)	1	-0.2	0	
5	obe (GeneID 41891)	1	-0.2	-0.3	
6	CR18275 + CR18166 + CG32817	1	0	-0.2	
7	trn (GeneID 39491)	1	-0.2	-0.3	
8	CG4363 (GeneID 37488)	1	-0.2	-0.3	
9	CG32428 (GeneID 50105)	1	2	2	
10	CG32428 (GeneID 50105)	2	-0.1	-0.1	
11	Rab9Db + Rab9D + Rab9Fa + 1 more	1	-0.4	-0.3	
12	Dnaaf3 (GeneID 37125)	1	-0.3	-0.3	
13	armi (GeneID 38427)	1	-0.3	0.4	
14	Dus4 (GeneID 35179)	1	-0.1	0.1	
15	CG40282 (retired record) (GeneID 3355140)	1	-0.1	0.2	
16	GstT1 (GeneID 35995)	1	-0.4	-0.6	
17	TSG101 (GeneID 39881)	1	-0.1	-0.4	
18	asRNA:CR33945 (GeneID 3772292)	1	-0.7	-0.6	
19	CG8192 (GeneID 36723)	1	-0.2	-0.4	
20	dachs (GeneID 34179)	1	0.3	0.4	
21	dachs (GeneID 34179)	2	-0.2	-0.5	
22	Der-1 (GeneID 33369)	1	0.9	0.6	
23	CG15212 (GeneID 50315)	1	-0.3	-0.7	
24	CG11601 (GeneID 33197)	1	-0.3	-0.4	
25	Lpt (GeneID 37795)	1	-0.4	-0.5	
26	Lpt (GeneID 37795)	2	-0.4	-0.4	
27	Hsp27 (GeneID 39078)	1	-0.4	-0.5	
28	Cyp6a8 (GeneID 36666)	1	-0.3	-0.3	
29	CG14006 (GeneID 33802)	1	-0.2	-0.4	
30	Crtc (GeneID 39970)	1	4.1	0.3	
31	Jra (GeneID 36057)	1	-0.3	-0.8	
32	CG5391 (GeneID 42611)	1	0.2	-0.1	
33	Ravus (GeneID 41626)	1	-0.6	-1.1	
34	Acp76A (GeneID 40078)	1	-0.3	0.1	
35	Ucp4B (GeneID 33833)	1	-0.2	0.3	
36	Vsx1 (GeneID 31470)	1	-0.3	-0.7	1.7
37	Vsx1 (GeneID 31470)	2	-0.2	1	
38	Meics (GeneID 39539)	1	-0.4	-0.2	
39	CG7352 (GeneID 40997)	1	-0.4	-0.5	
40	C901 (GeneID 32032)	1	0.1	-1.2	
41	CG33299 (GeneID 2768912)	1	-0.5	-0.1	
42	CG15764 (GeneID 31516)	1	-0.3	-0.7	
43	Glyp (GeneID 33386)	1	-0.5	-0.4	
44	Gr33a (GeneID 34641)	1	-0.3	0.1	
45	Ccdc58 + CG34116	1	-0.3	-0.2	
46	vir-1 (GeneID 34652)	1	-0.2	0.1	
47	vir-1 (GeneID 34652)	2	-0.2	-0.9	
48	js (GeneID 41986)	1	-0.5	-0.4	
49	CG10470 (GeneID 35174)	1	-0.4	-0.3	
50	Cad96Ca (GeneID 43026)	1	-0.4	-0.6	
51	Cad96Ca (GeneID 43026)	2	-0.2	-0.7	
52	hb (GeneID 41032)	1	-0.4	-0.2	
53	CG13380 + CG4174	1	-0.3	-0.2	
54	CG13380 + CG4174	2	-0.3	7.7	
55	ND-51 (GeneID 33852)	1	0.2	0	
56	Hel89B (GeneID 41943)	1	-0.1	-0.6	-0.6
57	Mppe (GeneID 36285)	1	-0.4	-0.7	
58	CG6254 (GeneID 41244)	1	-0.3	-0.7	
59	LysD + LysC (retired record)	1	-0.2	-0.1	
60	CG12516 (GeneID 43370)	1	-0.5	-0.3	
61	CG10185 (GeneID 41953)	1	-0.4	-0.5	
62	CG15071 (GeneID 37153)	1	-0.2	-0.4	
63	CG11911 (GeneID 33206)	1	-0.3	-0.3	
64	Cmtr1 (GeneID 31355)	1	-0.2	0.3	
65	m (GeneID 44835)	1	1.6	-0.2	
66	cav (GeneID 42881)	1	-0.3	-0.5	
67	CG32544 (GeneID 318082)	1	0.5	0.3	
68	C3G (GeneID 31618)	1	-0.2	0	
69	C3G (GeneID 31618)	2	-0.2	-0.4	
70	btz (GeneID 43331)	1	-0.1	0.1	
71	ppan (GeneID 42502)	1	1.9	0.2	
72	hay (GeneID 39202)	1	-0.1	0.2	
73	Gli (GeneID 34927)	1	0.3	-0.6	
74	CG6144 (GeneID 34443)	1	-0.7	0.2	
75	Polr3D (GeneID 40002)	1	0.5	0.8	
76	Sap30 (GeneID 32664)	1	-0.3	-0.4	
77	Gr5a (GeneID 44873)	1	-0.2	-0.1	
78	Mps1 (GeneID 42126)	1	-0.1	-0.1	
79	CG3719 (GeneID 44736)	1	-0.4	-0.4	
80	Fim (GeneID 32721)	1	-0.4	-0.8	
81	CG33221 (retired record) (GeneID 2768878)	1	0	-0.3	
82	CG1785 (GeneID 31810)	1	-0.4	0.7	
83	alpha-Man-Ia (GeneID 31957)	1	0.6	-0.2	
84	alpha-Man-Ia (GeneID 31957)	2	-0.1	0.2	
85	alpha-Man-Ia (GeneID 31957)	3	-0.3	-0.1	
86	alpha-Man-Ia (GeneID 31957)	4	-0.1	1	

Look-ups from the list:
Under “z-score, replicate 2”, vir-1 (GeneID 34652) #2 is entered as -0.9
For “z-score, replicate 1”, Hsp27 (GeneID 39078) shows -0.4
Vsx1 (GeneID 31470) #1, z-score, replicate 1 → -0.3
CG10470 (GeneID 35174), z-score, replicate 1 = -0.4
Gr5a (GeneID 44873), z-score, replicate 2: -0.1
Value of Polr3D (GeneID 40002) in “z-score, replicate 1”: 0.5
